The exact form of at least one protein or probe is not confirmed. At least one verdict rests on a figure or table, not on a statement of the authors.

The series relates to DENR (in DENR-MCTS1 complex, coexpressed) + MCTS1 (in DENR-MCTS1 complex, coexpressed). The series is described as follows: EMSA. As to conditions: similar affinity to other human tRNAs, Kd in figure only; none; 50 mM Tris pH 7.5, 150 mM NaCl, 15 mM imidazole (protein eluted in 300 mM imidazole, 2 mM DTT added), protein 0.25-16 uM, RNA 1 uM (3 uM yeast tRNA mix), 30 min on ice; recombinant protein; protein details: His6 on DENR or MCTS1,C-terminal His6 or untagged; letters put together from the description. In general terms: Mobility shift assays separate free from complexed probe on a gel.

Consider “GCCUCGUUAGCGCAGUAGGUAGCGCGUCAGUCUCAUAAUCUGAAGGUCGUGAGUUCGAUCCUCACACGGGGCACCA [human tRNA elonMet (IVT)]”, for which the binding result is “binds”. With “GUCAGUAUGGCAGAGCGGUAUAAGGCGGUGCGUUCAGGUCACAGUCUCCCCUGGAGGCGUGGGUUAGAAUCCCACUCGUGACCCA [human tRNA Leu (IVT)]”, the binding result is “binds”. Next, “GGGGGAUUAGCUCAAAUGGUAGAGCGCUCGCUUAGCAUGCGAGAGGUAGCGGGAUCGAUGCCCGCAUCCUCCACCA [human tRNA Ala (IVT)]”: “binds”.

(Values after PMC6013234.)
